Measured values: patent US20240238218A1, “[…] A PHARMACEUTICALLY ACTIVE COMPOUND AND METHOD OF PREPARATION THEREOF” (GW Research Limited, priority 2021, published 2024)

Columns and labels:
[1] = system: mouse model of generalised seizure (tonic hind limb extensor convulsions); assay: mini-MEST (maximal electroshock seizure threshold, minimal sample sizes) test in the mouse; conditions: 2.5 mg/kg i.p., 30 min post dose
Experimental: The maximal electroshock seizure threshold (MEST) test is widely utilized preclinically to evaluate pro- or anti-convulsant properties of test compounds (Loscher et al., 1991).
(§1) In the MEST test the ability of a drug to alter the seizure threshold current required to induce hind limb tonic extensor convulsions is measured according to an “up and down” method of shock titration (Kimball et al., 1957). An increase in seizure threshold is indicative of anti-convulsant effect.
(§2) The ability of a test compound to alter the stimulus intensity, expressed as current (mA), required to induce the presence of tonic hind limb extensor convulsions, is assessed in the MEST.
(§3) All animals were weighed at the beginning of the study and randomly assigned to treatment groups based on a mean distribution of body weight across groups.
The first animal within a treatment group was given a shock at the expected or estimated CC50 current. For subsequent animals, the current was lowered or raised depending on the convulsions outcome from the preceding animal in log scale intervals.
Data generated from each treatment group were used to calculate the CC50±SEM values for the treatment group. […]
(§4) Test compound effects were also calculated as percentage change in CC50 from the vehicle control group.
(§5) Significant difference between drug-treated animals and controls were assessed according to Litchfield and Wilcoxon (1949).

[2] = system: mouse model of generalised seizure (tonic hind limb extensor convulsions); assay: Maximal electroshock seizure threshold (MEST) test in the mouse; conditions: 2.5 mg/kg i.p., 30 min post dose
Experimental: The efficacy of the novel resorcinol according to the compound of Formula I was tested in a mouse model of generalised seizure, the maximal electroshock seizure threshold (MEST) test.
as §1, §2, §3
The first animal within a treatment group was given a shock at the expected or estimated CC50 current. For subsequent animals, the current was lowered or raised depending on the convulsions outcome from the preceding animal, in intervals of 5 mA. […]
as §4, §5

**Q.** What does the source list for `CN1C(=O)CN=C(c2ccccc2)c2cc(Cl)ccc21` [Diazepam, diazepam, reference compound]?
**A.** CC50 +/− SEM [1]: 89.0 +/− 3.4 mA; CC50 +/− SEM ([1]; listed as diazepam): 89.0 mA; CC50 +/− SEM [2]: 130.0 ± 1.1 mA; CC50 +/− SEM ([2]; listed as diazepam): 130.0 mA
